This is an account of results in publication PMC12678802, “Tudor-based proteomic strategy pan-specifically enriches and identifies protein arginine methylation” (EMBO Reports, 2025).

Protein sequences, listed by entry. Tags and fused reporters are not part of them.
UniProt O15371: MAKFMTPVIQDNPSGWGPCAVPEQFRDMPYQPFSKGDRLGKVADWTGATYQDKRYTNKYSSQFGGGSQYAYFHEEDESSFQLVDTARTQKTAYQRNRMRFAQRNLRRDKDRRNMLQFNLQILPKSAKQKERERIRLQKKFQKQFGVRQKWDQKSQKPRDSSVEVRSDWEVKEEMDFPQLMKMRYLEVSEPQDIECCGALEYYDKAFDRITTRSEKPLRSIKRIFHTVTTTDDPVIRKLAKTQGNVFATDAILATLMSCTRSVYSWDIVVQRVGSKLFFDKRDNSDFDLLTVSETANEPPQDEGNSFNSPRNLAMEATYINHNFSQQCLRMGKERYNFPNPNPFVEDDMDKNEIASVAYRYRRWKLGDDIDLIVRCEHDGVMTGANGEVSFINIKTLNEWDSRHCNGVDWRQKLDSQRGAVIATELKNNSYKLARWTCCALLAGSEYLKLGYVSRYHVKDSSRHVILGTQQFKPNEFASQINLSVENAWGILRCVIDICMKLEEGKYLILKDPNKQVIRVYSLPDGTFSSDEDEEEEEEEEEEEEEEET
UniProt Q9Y262: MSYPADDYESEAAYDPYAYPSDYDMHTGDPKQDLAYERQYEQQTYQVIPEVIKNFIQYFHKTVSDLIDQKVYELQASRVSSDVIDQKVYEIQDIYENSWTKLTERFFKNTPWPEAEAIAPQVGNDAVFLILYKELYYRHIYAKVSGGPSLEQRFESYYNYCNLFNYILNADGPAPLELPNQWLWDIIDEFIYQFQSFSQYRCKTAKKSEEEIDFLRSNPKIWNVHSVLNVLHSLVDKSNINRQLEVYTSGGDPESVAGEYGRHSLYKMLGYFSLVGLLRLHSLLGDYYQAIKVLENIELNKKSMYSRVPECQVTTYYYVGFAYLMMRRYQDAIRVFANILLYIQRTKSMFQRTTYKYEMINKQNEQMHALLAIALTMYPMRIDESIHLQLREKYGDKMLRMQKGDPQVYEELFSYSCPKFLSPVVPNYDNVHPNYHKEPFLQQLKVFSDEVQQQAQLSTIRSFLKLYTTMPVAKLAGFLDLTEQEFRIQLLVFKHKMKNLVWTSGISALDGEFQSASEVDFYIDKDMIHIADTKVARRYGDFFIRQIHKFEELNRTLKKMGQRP
UniProt Q99613: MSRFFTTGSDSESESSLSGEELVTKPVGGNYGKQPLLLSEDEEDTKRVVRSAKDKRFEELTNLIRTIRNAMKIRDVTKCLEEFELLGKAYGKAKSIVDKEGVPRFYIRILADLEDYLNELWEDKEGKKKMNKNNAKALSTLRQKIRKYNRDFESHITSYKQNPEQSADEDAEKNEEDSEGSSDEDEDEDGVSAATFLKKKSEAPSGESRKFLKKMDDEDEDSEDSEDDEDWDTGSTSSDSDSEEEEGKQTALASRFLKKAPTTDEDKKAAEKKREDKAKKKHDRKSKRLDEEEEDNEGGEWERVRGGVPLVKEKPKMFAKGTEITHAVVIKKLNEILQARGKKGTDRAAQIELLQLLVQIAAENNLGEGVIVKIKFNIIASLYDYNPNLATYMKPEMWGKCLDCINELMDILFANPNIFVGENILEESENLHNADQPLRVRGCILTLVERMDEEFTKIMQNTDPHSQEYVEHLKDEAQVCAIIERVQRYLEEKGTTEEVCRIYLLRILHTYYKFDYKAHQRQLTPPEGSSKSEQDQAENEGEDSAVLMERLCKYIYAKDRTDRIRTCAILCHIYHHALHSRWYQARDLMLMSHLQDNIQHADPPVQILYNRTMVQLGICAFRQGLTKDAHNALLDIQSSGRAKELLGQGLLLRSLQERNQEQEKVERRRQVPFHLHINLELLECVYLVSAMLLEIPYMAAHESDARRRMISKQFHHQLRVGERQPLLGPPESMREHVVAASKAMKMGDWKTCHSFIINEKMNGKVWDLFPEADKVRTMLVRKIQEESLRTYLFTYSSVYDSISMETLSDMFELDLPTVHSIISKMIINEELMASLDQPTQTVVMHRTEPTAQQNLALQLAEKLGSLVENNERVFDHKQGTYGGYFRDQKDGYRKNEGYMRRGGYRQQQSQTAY
UniProt Q9UBQ5: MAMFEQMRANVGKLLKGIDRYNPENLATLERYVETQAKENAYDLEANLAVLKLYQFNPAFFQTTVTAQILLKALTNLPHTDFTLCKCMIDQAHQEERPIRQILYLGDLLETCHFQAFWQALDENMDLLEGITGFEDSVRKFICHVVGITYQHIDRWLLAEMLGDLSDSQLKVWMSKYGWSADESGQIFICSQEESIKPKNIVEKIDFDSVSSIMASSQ

These are yes or no findings as the source states them, for the method shown. Binding seen in cells or lysates may run through a third protein. Some binding calls cover weakened binding; strength is not graded here.

Experiment [1] deals with Myc-eIF3D (full-length human eIF3D with a C-terminal Myc-tag and His6-tag) (human) (UniProt O15371). Put plainly: co-IP; HEK293T co-transfected with Myc-eIF3D and Flag-PRMT1 (or empty pcDNA3.1); anti-Myc antibody and Protein A magnetic beads; western blot. In general terms: In western blotting, separated proteins are transferred to a membrane and probed.
The target of experiment [2] is Full-length Flag-Myc-eIF3L (human) (UniProt Q9Y262). In words: co-IP; Flag-Myc-eIF3L transfected into HEK293T; lysate (50 mM HEPES-KOH pH 7.5, 150 mM KCl, 5 mM MgCl2, 0.5% NP-40) incubated with anti-DYKDDDDK magnetic agarose beads overnight at 4 °C; washed three times with 500 mM KCl buffer; eluted with 100 mM glycine pH 2.8; eluate on Coomassie stained SDS-PAGE.
For experiment [3], the target named is Flag-Myc-eIF3L (full-length human eIF3L with a C-terminal Flag-tag and Myc-tag) (human) (UniProt Q9Y262). In words: co-IP; HEK293T transfected with Flag-Myc-eIF3L; anti-DYKDDDDK magnetic agarose beads overnight at 4 °C; washes with 500 mM KCl; eluted with 100 mM glycine pH 2.8; western blot, Coomassie stain and MS.

As for “Flag-PRMT1 (full-length human PRMT1 with an N-terminal Flag-tag and His6-tag) (from UniProt Q99873-1 1-371) (enzyme)”, the binding result in experiment [1] is listed as “binds”.
For “eIF3 subunit c (band labelled 'c' in the purified eIF3 complex) (from UniProt Q99613 1-913)”, the binding result in experiment [2] was “binds”.
“eIF3 subunit k (band labelled 'k' in the purified eIF3 complex) (from UniProt Q9UBQ5 1-218)”: in experiment [2], the binding entry is “binds”.
For the substance “eIF3D (endogenous, in the eIF3 complex) (from UniProt O15371 1-548)”, in experiment [3], the binding entry was “binds”.
